Here are results for 65 molecules from the supplement of paper PMC4683952.

Where a name gives a salt, the structure may show the parent alone. The list shows a part of the results. Rule as the data show it: active = 2.5 or more and inactive = the rest. Single values are uncertain here, since repeats match poorly.

This assay concerns Lgr5 (MarsCy1-Lgr5-EGFP, U2OS). Nature of the assay: cell-surface Lgr5 expression (SCi1 fluorescence, background-subtracted) relative to WT control (fold of WT control); higher = more Lgr5 at the plasma membrane. As to conditions: U2OS MarsCy1-Lgr5-EGFP stable; treatment time: overnight; library: Prestwick; 20 µM.
In the case of `O=C(CCCN1CC=C(n2c(=O)[nH]c3ccccc32)CC1)c1ccc(F)cc1` [Droperidol], the “cell-surface Lgr5 expression” value was inactive: 2.27.
Consider `COc1cc2nc(N3CCN(C(=O)c4ccco4)CC3)nc(N)c2cc1OC` [Prazosin hydrochloride], for which the “cell-surface Lgr5 expression” value is inactive: 1.86.
Turning to `CCn1cc(C(=O)O)c(=O)c2cnc(N3CCNCC3)nc21` [Pipemidic acid], the “cell-surface Lgr5 expression” value is active: 2.51.
For the molecule `COc1nc(C)nc(Cl)c1NC1=NCCN1` [Moxonidine], the “cell-surface Lgr5 expression” value is inactive: 0.785.
As to `Cc1ccc(S(=O)(=O)NC(=O)NN2CC3CCCC3C2)cc1` (stereo not given) [Gliclazide], the “cell-surface Lgr5 expression” value was active: 3.24.
For `CC(=O)N[C@@H](CC(=O)N[C@@H](CCC(=O)O)C(=O)O)C(=O)O` [Spaglumic acid] the value was inactive: 1.25; for `COc1ccc(-c2cc(=O)c3c(O)cc(O)cc3o2)cc1` [Acacetin], active: 3.13.
With `O=c1c(O)c(-c2cc(O)c(O)c(O)c2)oc2cc(O)cc(O)c12` [Myricetin], the “cell-surface Lgr5 expression” value was inactive: 1.67.
Turning to `COc1ccc(C(=O)NCc2cccnc2)cc1C(=O)NCc1cccnc1` [Picotamide monohydrate], the “cell-surface Lgr5 expression” value was inactive: 0.963.
Take `NC[C@H]1O[C@H](O[C@H]2[C@H](O[C@@H]3O[C@H](CO)[C@@H](O)[C@H]3O)[C@@H](O)[C@H](N)C[C@@H]2N)[C@H](N)[C@@H](O)[C@@H]1O` [Ribostamycin sulfate salt]: the “cell-surface Lgr5 expression” value is inactive: 1.3.
As for `COc1ccc2[nH]cc(CCNC(C)=O)c2c1` [Melatonin], the “cell-surface Lgr5 expression” value was inactive: 0.896.
For `CC(C)N1CCN(c2ccc(OCC3COC(Cn4cncn4)(c4ccc(Cl)cc4Cl)O3)cc2)CC1` (stereo not given) [Terconazole] the value was active: 4.27; for `O=C(NCCNCC(O)COc1ccc(O)cc1)N1CCOCC1` (stereo not given) [Xamoterol hemifumarate], inactive: 1.7.
The same measure for `CCN(Cc1ccncc1)C(=O)C(CO)c1ccccc1` (stereo not given) [Tropicamide]: inactive: 1.04; for `CCN(CC)CC#CCOC(=O)C(O)(c1ccccc1)C1CCCCC1` (stereo not given) [Oxybutynin chloride]: inactive: 1.71; for `Cc1ncc([N+](=O)[O-])n1CCO` [Metronidazole]: inactive: 1.22.
As for `OC(CCN1CCCCC1)(c1ccccc1)C1CC2C=CC1C2` (stereo not given) [Biperiden hydrochloride], the “cell-surface Lgr5 expression” value is active: 2.72.
Consider `CC(C)NCC(O)COc1ccc(COCCOC(C)C)cc1` (stereo not given) [Bisoprolol fumarate], for which the “cell-surface Lgr5 expression” value was inactive: 0.606.
The same measure for `Nc1nc(=S)c2ncn([C@@H]3O[C@H](CO)[C@@H](O)[C@H]3O)c2[nH]1` [Thioguanosine]: inactive: 1.73; for `COc1c2ccoc2nc2c(OC)c(OCC(O)C(C)(C)O)ccc12` (stereo not given) [Evoxine]: inactive: 1.97; for `CC[C@H]1OC(=O)[C@H](C)[C@@H](O[C@H]2C[C@@](C)(OC)[C@@H](O)[C@H](C)O2)[C@H](C)[C@@H](O[C@@H]2O[C@H](C)C[C@H](N(C)C)[C@H]2O)[C@](C)(O)C[C@@H](C)/C(=N\OCOCCOC)[C@H](C)[C@@H](O)[C@]1(C)O` [Roxithromycin]: active: 3.08.
With `Nc1nc(=O)c2nc(CNc3ccc(C(=O)N[C@@H](CCC(=O)O)C(=O)O)cc3)cnc2[nH]1` [Folic acid], the “cell-surface Lgr5 expression” value is active: 2.72.
Consider `CC(=O)N[C@@H](CC(C)C)C(=O)O` [N-Acetyl-L-leucine], for which the “cell-surface Lgr5 expression” value was inactive: 1.67.
The same measure for `CN(C)CCN(Cc1cccs1)c1ccccn1` [Methapyrilene hydrochloride]: inactive: 1.57.
As for `COc1c(O[C@@H]2O[C@H](CO)[C@@H](O)[C@H](O)[C@H]2O)cc2c(c1OC)-c1ccc(SC)c(=O)cc1[C@@H](NC(C)=O)CC2` [Thiocolchicoside], the “cell-surface Lgr5 expression” value is inactive: 1.72.
The same measure for `Clc1ccc(C(Cn2ccnc2)OCc2c(Cl)cccc2Cl)c(Cl)c1` (stereo not given) [Isoconazole]: inactive: 0.747; for `NC(=O)N1c2ccccc2C=Cc2ccccc21` [Carbamazepine]: inactive: 1.39; for `CO[C@H]1/C=C/O[C@@]2(C)Oc3c(C)c(O)c4c(c3C2=O)C2=NC3(CCN(CC(C)C)CC3)NC2=C(NC(=O)/C(C)=C\C=C\[C@H](C)[C@H](O)[C@@H](C)[C@@H](O)[C@@H](C)[C@H](OC(C)=O)[C@@H]1C)C4=O` [Rifabutin]: inactive: 0.866.
Regarding `O=c1cc(-c2ccc(O)cc2)oc2cc(O)cc(O)c12` [Apigenin], the “cell-surface Lgr5 expression” value was inactive: 0.74.
The same measure for `O=C(Cn1ccnc1[N+](=O)[O-])NCCO` [Etanidazole]: inactive: 1.93.
As for `Cn1c(=O)c2nc[nH]c2n(C)c1=O` [Theophylline monohydrate], the “cell-surface Lgr5 expression” value is inactive: 2.36.
On to `c1ccc(C2CN3CCSC3=N2)cc1` (stereo not given) [Tetramisole hydrochloride], for which the “cell-surface Lgr5 expression” value is inactive: 2.17.
On to `C=C1c2cccc(O)c2C(=O)C2=C(O)[C@]3(O)C(=O)C(C(N)=O)=C(O)[C@@H](N(C)C)[C@@H]3[C@@H](O)[C@H]12` [Methacycline hydrochloride], for which the “cell-surface Lgr5 expression” value is inactive: 1.04.
With `COc1cc2cc3c4cc(OC)c(OC)cc4cc[n+]3c(C)c2cc1OC` [Coralyne chloride hydrate], the “cell-surface Lgr5 expression” value is inactive: 1.43.
Regarding `Cc1scc2c1N(C(=O)CN1CCN(C)CC1)c1ccccc1NC2=O` [Telenzepine dihydrochloride], the “cell-surface Lgr5 expression” value is inactive: 1.16.
With `COc1ccc(CN(CCN(C)C)c2ccccn2)cc1` [Pyrilamine maleate], the “cell-surface Lgr5 expression” value was inactive: 2.36.
For `CCCNC(C)C(=O)Nc1ccccc1C` (stereo not given) [Prilocaine hydrochloride] the value was active: 2.88.
For `CC(COc1ccccc1)N(CCCl)Cc1ccccc1` (stereo not given) [Phenoxybenzamine hydrochloride], the “cell-surface Lgr5 expression” value is inactive: 2.04.
On to `CC(=O)c1ccc(S(=O)(=O)NC(=O)NC2CCCCC2)cc1` [Acetohexamide], for which the “cell-surface Lgr5 expression” value is inactive: 1.4.
On to `CCCCC[C@H](O)/C=C/[C@@H]1[C@@H](C/C=C\CCCC(=O)O)[C@@H](O)C[C@H]1O` [Dinoprost trometamol], for which the “cell-surface Lgr5 expression” value was inactive: 0.443.
Turning to `CCOC(=O)c1ccc(OC(=O)CCCCCNC(=N)N)cc1` [Gabexate mesilate], the “cell-surface Lgr5 expression” value is inactive: 1.01.
Regarding `Cc1cc(=O)oc2cc(O)ccc12` [Hymecromone], the “cell-surface Lgr5 expression” value was inactive: 2.16.
As to `CCOC(=O)OC(C)OC(=O)[C@@H]1N2C(=O)[C@@H](NC(=O)[C@H](N)c3ccccc3)[C@H]2SC1(C)C` (stereo not given in full) [Bacampicillin hydrochloride], the “cell-surface Lgr5 expression” value is inactive: 1.37.
As for `NCCCC[C@H](N[C@@H](CCc1ccccc1)C(=O)O)C(=O)N1CCC[C@H]1C(=O)O` [Lisinopril], the “cell-surface Lgr5 expression” value is inactive: 1.23.
`CC(C)(C)NC[C@H](O)COc1nsnc1N1CCOCC1` [Timolol maleate salt]: the “cell-surface Lgr5 expression” value is inactive: 1.91.
As for `C1CCN2C[C@@H]3C[C@@H](CN4CCCC[C@@H]34)[C@H]2C1` [Sparteine (-)], the “cell-surface Lgr5 expression” value was inactive: 2.2.
Regarding `CC1CC(OC(=O)C(O)c2ccccc2)CC(C)(C)N1C` (stereo not given) [Eucatropine hydrochloride], the “cell-surface Lgr5 expression” value was inactive: 1.67.
`Cc1nnc(NS(=O)(=O)c2ccc(N)cc2)s1` [Sulfamethizole]: the “cell-surface Lgr5 expression” value is inactive: 2.2.
Take `CCN1CCC[C@H]1CNC(=O)c1c(OC)ccc(Br)c1OC` [Remoxipride Hydrochloride]: the “cell-surface Lgr5 expression” value is inactive: 1.35.
On to `O=C(O)COC(=O)Cc1ccccc1Nc1c(Cl)cccc1Cl` [Aceclofenac], for which the “cell-surface Lgr5 expression” value is inactive: 1.12.
On to `Cc1cc(/C=C/c2ccc3cc(N(C)C)ccc3[n+]2C)c(C)n1-c1ccccc1` [Pyrvinium pamoate], for which the “cell-surface Lgr5 expression” value was inactive: 1.37.
The same measure for `CCn1nc(C(=O)O)c(=O)c2cc3c(cc21)OCO3` [Cinoxacin]: inactive: 0.993; for `CCCCNc1ccc(C(=O)OCCOCCOCCOCCOCCOCCOCCOCCOCCOC)cc1` [Benzonatate]: inactive: 1.25; for `O=C(O)/C=C/c1ccc(Cn2ccnc2)cc1` [Ozagrel hydrochloride]: inactive: 0.918.
On to `Oc1ccc(OCc2ccccc2)cc1` [Monobenzone], for which the “cell-surface Lgr5 expression” value is inactive: 1.41.
Consider `C[C@H]1C[C@H]2[C@@H]3CCC4=CC(=O)C=C[C@]4(C)[C@@]3(F)[C@@H](O)C[C@]2(C)[C@@]1(O)C(=O)CO` [Betamethasone], for which the “cell-surface Lgr5 expression” value is inactive: 2.1.
For `Cc1ccc(Cl)c(Nc2ccccc2C(=O)O)c1Cl` [Meclofenamic acid sodium salt monohydrate] the value was inactive: 1.97; for `COC(=O)Nc1nc2ccc(SC(C)C)cc2[nH]1` [Methiazole], inactive: 1.51.
Turning to `CCN1CCN(C(=O)N[C@@H](C(=O)N[C@@H]2C(=O)N3C(C(=O)O)=C(CSc4nnnn4C)CS[C@H]23)c2ccc(O)cc2)C(=O)C1=O` [Cefoperazone dihydrate], the “cell-surface Lgr5 expression” value was inactive: 0.272.
`CC(C(=O)O)c1ccc(N2Cc3ccccc3C2=O)cc1` (stereo not given) [Indoprofen]: the “cell-surface Lgr5 expression” value is inactive: 0.0489.
For `CC1=Nc2ccc(Cl)cc2S(=O)(=O)N1` [Diazoxide] the value was inactive: 1.43.
On to `C[C@H](O)C(=O)Nc1c(I)c(C(=O)NC(CO)CO)c(I)c(C(=O)NC(CO)CO)c1I` [Iopamidol], for which the “cell-surface Lgr5 expression” value is inactive: 1.77.
In the case of `CC(C)CC(=O)N[C@H](C(=O)N[C@H](C(=O)N[C@@H](CC(C)C)[C@@H](O)CC(=O)N[C@@H](C)C(=O)N[C@@H](CC(C)C)[C@@H](O)CC(=O)O)C(C)C)C(C)C` [Pepstatin A], the “cell-surface Lgr5 expression” value was inactive: 1.65.
Take `CC[C@H]1OC(=O)[C@H](C)[C@@H](O[C@H]2C[C@@](C)(OC)[C@@H](O)[C@H](C)O2)[C@H](C)[C@@H](O[C@@H]2O[C@H](C)C[C@H](N(C)C)[C@H]2O)[C@](C)(O)C[C@@H](C)[C@@H]2N[C@@H](COCCOC)O[C@H]([C@H]2C)[C@]1(C)O` [Dirithromycin]: the “cell-surface Lgr5 expression” value is inactive: 2.18.
The same measure for `O=C1CC2(CCCC2)CC(=O)N1CCCCN1CCN(c2ncccn2)CC1` [Buspirone hydrochloride]: inactive: 2.44.
